## Library screen at single concentrations

Data taken from ChEMBL document CHEMBL3988442, “University of Dundee, Small-Polar-MMV Screening Library” (2021).

Each number is a percent effect as filed. The record does not define 0% and 100%; most values in the screen are far below 50% and negative numbers occur (in some assays of this library far below -100). Compounds were drawn at random from those tested, without regard to their results. Two or more numbers in one place are separate tests of the same structure; such repeats can differ widely.

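Phenotypic screen: M. tuberculosis growth, glucose 7H9 medium, 3 days; the read-out is not stated. Tested at 50 µM. The record gives no direction; compounds that gave an IC50 in retests scored well above the rest, so higher reads as more growth inhibition. Of about 69,000 compounds tested this way, about 760 (1.1%) reached 50% or more in at least one test.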

| structure | effect |
|---|---|
| `Cc1nc2ccccn2c1CN1C[C@@H](CN2CCOCC2)[C@@H](CO)C1` | -11.64% |
| `Cc1ccc(OCCNc2cccc(C(=O)N3CCOCC3)c2)cc1` | 6.034% |
| `Fc1ccc(CN2CCC(c3n[nH]c4nccnc34)CC2)cc1F` | 11.15% |
| `CC(C)c1nc(C2CCCN(C(=O)c3ccc4nccn4c3)C2)no1` (centres unmarked) | 3.976% |
| `Cc1cc(N)nc(SC2CCN(c3ccccc3)C2=O)n1` (centres unmarked) | -5.139% |
| `CNC[C@H]1CC[C@H](c2cc(CN(C)C(=O)c3cnccn3)n(C)n2)CC1.Cl` | 23.08% |
| `CC(C(=O)NCc1ccc2c(c1)OCCO2)n1cncn1` (centres unmarked) | -11.54% |
| `c1cc(-c2nc3c(c(NCCn4ccnn4)n2)CCNCC3)ccn1` | -15.73% |
| `Cc1ncc(CN2CCC(c3nc4cc(Cl)ccc4o3)CC2)s1` | 1.186% and 30.21% |
| `O=S(=O)(Cc1c(F)cccc1Cl)Cc1nnnn1C1CC1` | 24.12% |
| `O=C(COCC1CC1)Nc1cc(-c2ccc(Br)s2)n[nH]1` | 38.55% |
| `O=C(COc1cccc(Br)c1)N1CCN(c2nccs2)CC1` | 31.63% |
| `CC(=O)NCC(=O)N1Cc2nc(COCc3csc(C)n3)oc2C1` | -2.945% and -27.38% |
| `COc1c(C)cnc(CN2CCCC(Cn3nc(C)nc3C)C2)c1C` (centres unmarked) | -41.46% |
| `CC(C)C(C)NC(=O)Nc1cccc(OCC#N)c1` (centres unmarked) | 14.64% |
| `CCS(=O)(=O)N1CCC(c2nc3ccc(-c4ccccc4)cn3n2)CC1` | -1.393% |
| `COc1ccc(CNC(=O)CCc2nnc3ccccn3c2=O)cc1` | -15.08% |
| `Cn1cc(-c2ncc3c(c2C(=O)O)CCN(CC2CCOC2)C3)cn1` (centres unmarked) | -20.85% |
| `CCCS(=O)(=O)c1ncc(CN2CCC(CO)CC2)n1CC1CCCO1` (centres unmarked) | 1.674% and -7.028% |
| `COc1cc(C)nc(N2CCN(C(=O)COC3CCCC3)CC2)n1` | 32.2% |
| `CCC1CN(Cc2nnc(C(C)C)o2)CCC(=O)N1Cc1ccccc1` (centres unmarked) | -4.184% |
| `CCN1CCC(CNC(=O)C2(c3cccc(C)c3)CCCCC2)CC1` | -2.629% |
| `O=C(O)C(c1ccc2c(c1)OCCO2)N1CCC(N2CCOCC2)CC1` (centres unmarked) | 8.491% |
| `CCc1noc(C2CCN(C(=O)CCn3nc(C)cc3C)CC2)n1` | 7.015% |
| `CN(C)S(=O)(=O)NCc1cccnc1Oc1ccc(F)cc1F` | 19.92% |
| `CNS(=O)(=O)CC(=O)NC(C)Cc1cccc(Cl)c1` (centres unmarked) | -0.1142% |
| `CCS(=O)(=O)N1CCC2(CC1)CC1(CCN(CCOC)CC1)C(=O)N2C.O=C(O)C(F)(F)F` | -5.427% and 9.297% |
| `CCc1[nH]c2c(CNC(=O)[C@@H]3CCCN3C)cc(C)cc2c1C` | 9.926% and -39.08% |
| `CC1CCCN(C(=O)c2cn(-c3ccc(C(F)(F)F)cn3)nn2)C1` (centres unmarked) | -52.07% |
| `Nc1nc(N2CCCCC2)ncc1C(=O)NCc1ccc(F)c(Cl)c1` | 39.05% |
| `COc1ccc(CN2CCC3(CC(=O)N(c4cccc(F)c4)C3)C2)cc1.O=C(O)C(F)(F)F` (centres unmarked) | 15.84% and 21% |
| `CCOC1CCN(C(=O)NCCc2ccn(-c3ccccc3)n2)CC1` | 17.14% |
| `O=C(NCC1CCCO1)c1c(-n2cnnn2)sc2c1CCC2` (centres unmarked) | 14.45% and -4.072% |
| `Cc1ccccc1CC(=O)N1CC[C@@](O)(CNS(C)(=O)=O)[C@H](O)C1` | -7.342% |
| `Cc1cc(C)nc(NCc2nnc3n2CCCCC3)n1` | -25.03% |
| `CCn1cc2c(n1)C(COC)CN(Cc1ccccn1)C2` (centres unmarked) | -37.31% |
| `COc1ccc(NC(C)c2nnnn2-c2ccccc2)cc1F` (centres unmarked) | 9.81% |
| `Cc1nc(-c2ccccc2)sc1CSC(C)C(N)=O` (centres unmarked) | 10.06% |
| `CN1C(=O)C(c2cccnc2)CC12CCN(CCO)CC2` (centres unmarked) | 3.856% |
| `O=C(O)C(F)(F)F.[H][C@@]12CN(c3cc(OC)ncn3)CCC[C@]1(C(=O)O)CN(C(C)C)C2` | -8.183% and -4.683% |
| `COCc1n[nH]c2c1CN(Cc1cccs1)C2.O=C(O)C(F)(F)F` | -11.5% and -6.521% |
| `c1cnnc(N2CCCC2CNCCc2cccs2)c1` (centres unmarked) | 38.2% |
| `c1cc(CN2CCOC(Cn3cccn3)C2)c2c(c1)OCCO2` (centres unmarked) | 16.89% |
| `[H][C@@]12CCN(CC3CC3)C[C@@]1([H])[C@H](C(=O)N1CCCC1)CCO2` | -0.03534% |
| `CCn1cc(N2Cc3nc(N(C)C)ncc3C2=O)cn1` | -10.09% |
| `O=C(C1CN(c2ncc(F)cn2)CC12CCOCC2)N1CCOCC1` (centres unmarked) | 4.51% and -3.146% |
| `COCC(=O)NC[C@H]1OC[C@@H](NC2CCC(F)(F)CC2)[C@@H]1O` | -10.96% and -2.939% |
| `CN1CCCC1(CCCc1cccnc1)C(=O)NCc1nccn1C` (centres unmarked) | 7.496% |
| `CC(C)c1nc(C2CCCN2CCc2ccncc2)no1` (centres unmarked) | 1.833% |
| `Cc1nc(C)n(CC2CN(S(C)(=O)=O)Cc3nccn3C2)n1` (centres unmarked) | -10.75% and -0.1874% |
| `CCCNC(=O)CNC(=O)CCc1ccccc1Br` | 10.38% and -4.503% |
| `Cc1nc2c(c(=O)[nH]1)CCN(Cc1ccc3c(c1)CCCN3C)C2` | -4.965% |
| `COc1cc(NCc2ncc[nH]2)ccc1Br` | -13.2% and 6.248% |
| `CC(C)n1ccnc1CN1CCCN(C(=O)c2nccnc2N)CC1` | -14.25% |
| `Cc1cncc(C(=O)N2CCc3ncc(Cn4cccn4)n3CC2)c1` | -37.65% |
| `CC(C)(C)OC(=O)NC1(c2noc(-c3ccco3)n2)CCC1` | -20.44% |
| `CO[C@H]1CO[C@@]2(CCCN(S(=O)(=O)c3ccccc3)C2)C1` | -8.946% |
| `Cc1ccc(CN2CCc3onc(C(=O)NCCN(C)C)c3C2)o1.O=C(O)C(F)(F)F.O=C(O)C(F)(F)F` | 25.55% |
| `CSCC[C@@H](CO)n1ccnc1-c1nccn1C` | -14.45% and -4.548% |
| `CS(=O)(=O)c1ccc(OCCNCc2cccc(F)c2)cc1` | 23.14% |
| `O=C(O)Cn1ccc(=O)c2cc(F)ccc21` | -12.58% |
| `CC(O)CN1CCN(C(=O)Cc2ccccc2Cl)CC1` (centres unmarked) | 12.77% |
| `CCOc1ccc(CN2C(=O)CC(CC)(CC)C2=O)nc1` | 18.21% and 17.42% |
| `CC(C)Cc1noc(C2CCCN(C(=O)CCc3cnn(C)c3)C2)n1` (centres unmarked) | -3.256% |
| `Cn1ccc(CN2CCC(c3ccccc3)CC2)cc1=O` | -0.1821% |
| `CCCc1nncn1-c1cc(OC)ccc1OC` | -14.6% |
| `COc1ccc(CCC(=O)N2CCCC(n3cncn3)C2)cc1` (centres unmarked) | 2.956% and 4.452% |
| `CNc1cc(C2CCCN(Cc3ccccc3OCC(=O)O)C2)ccn1` (centres unmarked) | 26.77% |
| `Nc1nnc(CCCn2nnc(-c3ccccc3F)n2)s1` | -0.587% |
| `Cc1ccc2snc(C(=O)N3CCN(C(=O)NCCC(C)C)CC3)c2c1` | -10.05% |
| `CCN1C(=O)C2(CCOCC2)c2cc(NC(=O)COC)ccc21` | -11.01% and -10.1% |
| `O=C(NCCNc1cc(N2CCCC2)ncn1)c1cnccn1` | 15.36% |
| `CC(C)C(=O)N1CCCN(C(=O)NC2CCc3ccccc3C2)CC1` (centres unmarked) | 3.452% |
| `O=c1cc2c(nn1CN1CCN(c3ccc(F)cc3)CC1)CCC2` | -14.42% |
| `Cc1nc(CN(C)C2CCN(Cc3nc4ccccc4s3)C2)no1` (centres unmarked) | 18.43% |
| `O=C(O)C(F)(F)F.[H][C@@]12COC[C@]1(COc1cccnc1)CN(C(=O)c1ccc(F)cc1)C2` | -18.91% |
| `Cc1ccc(N2CCC3(CN(Cc4ccncc4)CCC3(F)F)C2)nn1.O=C(O)C(F)(F)F.O=C(O)C(F)(F)F` (centres unmarked) | 16.17% |
| `CCCN1CCC(N(Cc2ncc(C)o2)C(C)=O)C1` (centres unmarked) | 14.97% |
| `O=C(Nc1cccc(C2SCCS2)c1)C1CCCN1c1nccs1` (centres unmarked) | 1.578% |
| `O=C(COCc1ccccc1)N1CCN(Cc2ccccc2F)C(=O)C1` | 1.841% |
| `CN1CCCC2(CCN(Cc3cncn3C3CCCCC3)C2)C1=O` (centres unmarked) | -19.04% and 1.115% |
| `CCOCCCC(=O)N(C)C(c1cccc(F)c1)c1ccccn1` (centres unmarked) | -8.88% |
| `OCc1csc(N2CCCN(Cc3ccc(F)cc3)CC2)n1` | -10.26% and -1.426% |
| `Cc1ccccc1CN1CCCC1c1cncc(Nc2nncs2)n1` (centres unmarked) | 17.97% |
| `CO[C@H]1CNC[C@@H]1NC(=O)c1cc(C)nc2c(C)c(C)ccc12` | 23.87% |

Once more, the final 9:

With Cc1ccc(N2CCC3(CN(Cc4ccncc4)CCC3(F)F)C2)nn1.O=C(O)C(F)(F)F.O=C(O)C(F)(F)F (centres unmarked) the screen gave 16.17%.
With CCCN1CCC(N(Cc2ncc(C)o2)C(C)=O)C1 (centres unmarked) the screen gave 14.97%.
With O=C(Nc1cccc(C2SCCS2)c1)C1CCCN1c1nccs1 (centres unmarked) the screen gave 1.578%.
With O=C(COCc1ccccc1)N1CCN(Cc2ccccc2F)C(=O)C1 the screen gave 1.841%.
With CN1CCCC2(CCN(Cc3cncn3C3CCCCC3)C2)C1=O (centres unmarked) the screen gave -19.04% and 1.115%.
With CCOCCCC(=O)N(C)C(c1cccc(F)c1)c1ccccn1 (centres unmarked) the screen gave -8.88%.
With OCc1csc(N2CCCN(Cc3ccc(F)cc3)CC2)n1 the screen gave -10.26% and -1.426%.
With Cc1ccccc1CN1CCCC1c1cncc(Nc2nncs2)n1 (centres unmarked) the screen gave 17.97%.
With CO[C@H]1CNC[C@@H]1NC(=O)c1cc(C)nc2c(C)c(C)ccc12 the screen gave 23.87%.